Source: PubChem BioAssay AID504444 (National Center for Advancing Translational Sciences (NCATS), 2011)
In all, about 360,000 compounds went through this assay and about 7,500 (2.1%) were called active. Inconclusive means that the source gave no clear call. Such entries were picked first, then a sample of the others. The call rests on the fitted dose curve; in most records, active means well fitted inhibition curve with a large enough effect; inconclusive means small, poorly fitted or top-dose-only effect, or effect the other way; inactive means flat fitted curve, though single readings scatter. Potencies of inconclusive entries are doubtful fits and often do not repeat.
On the % scale 0 is the no-effect control and ±100 the full control effect; potency means the concentration at half of the fitted maximal effect.

Assay: Nrf2 qHTS screen for inhibitors; further: nearly all actives have a fitted effect of over 60% in size
Conditions: A549 ARE-Fluc reporter, luciferase luminescence, 18-24 h; activity change, negative = inhibition: at 46 µM (top of the series)
Outline: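 Concentration-response testing used A549 ARE_Fluc cells at 5000 cells/well. Following an 18-24 h compound incubation, viability was read by fluorescence (Ex 405/Em 525) and luciferase output by luminescence.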
With Cc1ccc(C)c(NC(=O)C(=O)NCCc2c[nH]c3ccccc23)c1 the Potency was inconclusive: 14.6 µM [activator, partial curve, poor fit].
In the case of CCc1ccccc1N(CC(=O)NCc1ccccc1)C(=O)CCC(=O)Nc1ccccn1, the Potency was inconclusive: 29.1 µM [falling, single point].
With COC(=O)c1ccc(-n2nnc(-c3nsc(NC(=O)c4ccc(Cl)cc4)n3)c2C)cc1 the “activity change, negative = inhibition” value was inactive: 4.56%.
In the case of Cc1ccc(C(=O)N2CCCC(CCC(=O)N3CCN(c4ccccn4)CC3)C2)s1 (configuration not stated), the Potency was inconclusive: 29.1 µM [falling, single point].
In the case of CC(C)C[C@@H](CN)NC(=O)c1nc[nH]c1C(=O)N[C@@H](CC(=O)O)C(=O)CNC[C@H](C)NC(=O)c1nc[nH]c1C(=O)N[C@@H](CC(=O)O)C(=O)O, the “activity change, negative = inhibition” value was inactive: 28.2%.
With CC(C)(C)OC(=O)C[C@@H]1C/C=C\C[C@@H](CC(=O)N[C@@H](CO)Cc2ccccc2)C(=O)NCCOC1=O the “activity change, negative = inhibition” value was inactive: -5.21%.
With CCOc1ccc(-c2c(C)sc3nc[nH]c(=O)c23)cc1 the Potency was inconclusive: 20.6 µM [falling, single point].
In the case of O=C(O)COc1ccc2oc3c(c2c1)CCCC3, the Potency was inconclusive: 20.6 µM [falling, partial curve, poor fit].
In the case of Cc1cccc(C)c1NC(=O)c1nc(SC(C)C)ncc1Cl, the Potency was inconclusive: 13 µM [activator, partial curve, poor fit].
For CCOc1ccc2c(C)nc(NC3=NC(C)(C)C=C(C)N3)nc2c1, the “activity change, negative = inhibition” value was inactive: -6.95%.
In the case of C/C(=C\c1ccccc1)C(=O)Nc1ccc(Cl)cn1, the Potency was inconclusive: 9.2 µM [activator, partial curve].
With O=C(c1ccc(-c2ccccc2)cc1)C1CCCN(C(=O)c2cncs2)C1 (configuration not stated) the Potency was inconclusive: 32.6 µM [falling, partial curve, poor fit].
With Cn1cc(Cl)c(C(=O)N/N=C/c2ccc3c4c(cccc24)CC3)n1 the Potency was inconclusive: 7.31 µM [activator, partial curve, poor fit].
With CCOc1ccccc1NC(=O)Cn1c(=O)n(CCCCC(=O)NCCCOC)c(=O)c2ccccc21 the “activity change, negative = inhibition” value was inactive: 15.6%.
For O=C(c1cc(-c2cccc(Cl)c2)on1)N1CCCCCC1, the Potency was inconclusive: 7.31 µM [activator, partial curve].
In the case of CCN(CC)c1ccc(/C=N/Nc2nc3ccccc3[nH]2)c(O)c1, the Potency was active: 25.9 µM.
For O=C1Nc2ccc(Br)cc2/C1=C/C(=O)c1ccccc1, the Potency was inconclusive: 25.9 µM [falling, partial curve, poor fit].
In the case of CCc1ccccc1N(C)C(=O)c1cc2c(Cl)nc3ccc(C)cc3c2s1, the “activity change, negative = inhibition” value was inactive: 2.22%.
With Cc1onc(-c2ccccc2)c1C(=O)NNC(=S)NC(=O)c1ccc(Cl)cc1Cl the Potency was inconclusive: 29.1 µM [falling, single point].
In the case of Cc1nn(-c2ccccc2)c2nc(C(F)(F)F)[nH]c(=O)c12, the Potency was inconclusive: 23.1 µM [falling, single point].
For O=C(NCc1cccc(F)c1)C1CCN(c2nn3cc(-c4ccc(F)cc4)nc3s2)CC1, the Potency was inconclusive: 20.6 µM [activator, single point].
In the case of O=C(CN1C(=O)C2CCCCC2C1=O)Nc1ccccc1N1CCCC1 (configuration not stated), the Potency was inconclusive: 4.11 µM [falling, single point].
For CCOc1ccc(Nc2nc(N)nc(CCl)n2)cc1, the Potency was inconclusive: 3.26 µM [activator, full curve, poor fit].
For COc1ccc(C2CC(c3ccccc3)Oc3cc(OC)c(OC)c(OC)c32)cc1 (configuration not stated), the Potency was “inactive”.
For COc1ccc(NC(=O)c2ccco2)cc1NC(=O)COc1cc(C)ccc1C(C)C, the Potency was active: 18.4 µM.
For CNC(=S)N(CCc1ccc(S(N)(=O)=O)cc1)C1CC(=O)N(c2ccccc2F)C1=O (configuration not stated), the Potency was inconclusive: 14.6 µM [falling, partial curve, poor fit].
With C=C1c2cc(C)ccc2NC(=O)N1c1ccccc1 the Potency was inconclusive: 5.8 µM [activator, single point].
With CSCCC(NC(=O)c1ccccc1)C(=O)NCCCSc1ccccc1 (configuration not stated) the Potency was inconclusive: 7.31 µM [falling, partial curve, poor fit].
In the case of CCOC(=O)c1c(NC(=O)CN2C(=O)NC(C)(c3ccc(Cl)cc3)C2=O)sc(C(=O)NC)c1C (configuration not stated), the Potency was inconclusive: 20.6 µM [falling, single point].
With Cc1ccc(-c2noc(C3CCCN(C(=O)c4ccc(F)cc4F)C3)n2)cc1 (configuration not stated) the Potency was inconclusive: 32.6 µM [falling, single point].
For CCN(CC)S(=O)(=O)c1ccc(S(=O)(=O)Nc2c(C)nn(C)c2C)cc1, the Potency was inconclusive: 10.3 µM [falling, partial curve].
In the case of O=C(NC1CCCC1)c1cc(-c2ccccc2Cl)on1, the Potency was inconclusive: 29.1 µM [activator, single point].
With O=c1[nH]ncc(N/N=C\c2cccs2)c1Cl the “activity change, negative = inhibition” value was inactive: -7.84%.
With CC1CCN(C(=O)CCc2nnc(-c3ccccc3)o2)CC1 the Potency was inconclusive: 6.51 µM [activator, full curve, poor fit].
With COc1cccc(CNC(=O)CSc2nnc(C)c3c(C)n(-c4ccccc4)nc23)c1 the “activity change, negative = inhibition” value was inactive: -27.1%.
For Cc1nc2sc(C(c3ccco3)N3CCN(c4cccc(Cl)c4)CC3)c(O)n2n1 (configuration not stated), the Potency was inconclusive: 23.1 µM [falling, single point].
In the case of CCCCCCOc1ccc(NC(=O)CC2C(=O)N(CC)C(=S)N2Cc2ccco2)cc1 (configuration not stated), the Potency was inconclusive: 29.1 µM [falling, single point].
In the case of COc1ccc(NC(=O)CCS(=O)(=O)c2cc3c4c(c2)CCN4C(=O)CC3)cc1OC, the “activity change, negative = inhibition” value was inactive: 11.5%.
In the case of CCCN1CCC(=O)N(CCSc2ccccc2)CC1, the Potency was inconclusive: 1.64 µM [activator, full curve, poor fit].
In the case of COc1ccc(-c2nnc(SCC(=O)NC3CCCCC3)o2)cc1, the Potency was inconclusive: 25.9 µM [falling, single point].
For COc1cccc(NC2=CC(c3ccc(C(C)C)cc3)N(c3cccc(OC)c3)C2=O)c1 (configuration not stated), the Potency was inconclusive: 20.6 µM [activator, partial curve, poor fit].
For Cc1c(Cl)cccc1-n1nnc(-c2nc(-c3ccc4c(c3)OCO4)no2)c1C, the Potency was inconclusive: 0.517 µM [falling, full curve].
